Laboratory results: PMC3635865
Where cells or extracts were used, other partners may take part. For some of these results: No signal at the amounts used counts as a negative. For some of these results: Protein sequences can lack the tags named with them. For some of these results: Construct, isoform or probe ends are uncertain for at least one entry.

Tests used:
Experiment in all cases: pull-down
[1] = molecular target: T1, RanGAP1 (endogenous) (human (HeLa)) (UniProt P46060); settings: 600 mM NaCl; biotin-11-CTP incorporated; pull-down: 0.1% Triton X-100, 600 mM NaCl, 5 mM MgCl2, 1 mM DTT, 4 C, 1 h; protein in an extract; label: biotin; letters put together from the description
T1 sequence (looked up, limits assumed): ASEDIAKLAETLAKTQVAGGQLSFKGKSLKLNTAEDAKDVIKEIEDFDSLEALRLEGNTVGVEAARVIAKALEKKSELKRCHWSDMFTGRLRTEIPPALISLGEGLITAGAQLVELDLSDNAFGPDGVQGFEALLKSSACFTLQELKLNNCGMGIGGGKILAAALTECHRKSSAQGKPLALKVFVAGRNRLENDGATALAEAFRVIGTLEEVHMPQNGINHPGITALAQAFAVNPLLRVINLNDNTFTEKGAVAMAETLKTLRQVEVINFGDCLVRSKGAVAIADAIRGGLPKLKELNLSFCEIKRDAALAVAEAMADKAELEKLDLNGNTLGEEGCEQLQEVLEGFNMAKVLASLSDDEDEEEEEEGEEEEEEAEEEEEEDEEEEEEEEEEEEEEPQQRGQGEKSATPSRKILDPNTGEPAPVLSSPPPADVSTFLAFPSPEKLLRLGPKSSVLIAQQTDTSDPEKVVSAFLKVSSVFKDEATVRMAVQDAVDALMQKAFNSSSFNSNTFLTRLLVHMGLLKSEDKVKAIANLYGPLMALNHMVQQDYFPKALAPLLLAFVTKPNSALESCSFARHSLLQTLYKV

[2] = molecular target: RanBP2/Nup358 (endogenous) (human (HeLa)) (UniProt P49792); settings: 600 mM NaCl; biotin-11-CTP incorporated; pull-down: 0.1% Triton X-100, 600 mM NaCl, 5 mM MgCl2, 1 mM DTT, 4 C, 1 h; protein in an extract; label: biotin; letters put together from the description
[3] = molecular target: Ran (endogenous) (human (HeLa)) (UniProt P62826); settings: 600 mM NaCl; biotin-11-CTP incorporated; pull-down: 0.1% Triton X-100, 600 mM NaCl, 5 mM MgCl2, 1 mM DTT, 4 C, 1 h; protein in an extract; label: biotin; letters put together from the description
[4] = molecular target: T2, Nup153 (endogenous) (human (HeLa)) (UniProt P49790); settings: 600 mM NaCl; biotin-11-CTP incorporated; pull-down: 0.1% Triton X-100, 600 mM NaCl, 5 mM MgCl2, 1 mM DTT, 4 C, 1 h; protein in an extract; label: biotin; letters put together from the description
T2 sequence (looked up, limits assumed): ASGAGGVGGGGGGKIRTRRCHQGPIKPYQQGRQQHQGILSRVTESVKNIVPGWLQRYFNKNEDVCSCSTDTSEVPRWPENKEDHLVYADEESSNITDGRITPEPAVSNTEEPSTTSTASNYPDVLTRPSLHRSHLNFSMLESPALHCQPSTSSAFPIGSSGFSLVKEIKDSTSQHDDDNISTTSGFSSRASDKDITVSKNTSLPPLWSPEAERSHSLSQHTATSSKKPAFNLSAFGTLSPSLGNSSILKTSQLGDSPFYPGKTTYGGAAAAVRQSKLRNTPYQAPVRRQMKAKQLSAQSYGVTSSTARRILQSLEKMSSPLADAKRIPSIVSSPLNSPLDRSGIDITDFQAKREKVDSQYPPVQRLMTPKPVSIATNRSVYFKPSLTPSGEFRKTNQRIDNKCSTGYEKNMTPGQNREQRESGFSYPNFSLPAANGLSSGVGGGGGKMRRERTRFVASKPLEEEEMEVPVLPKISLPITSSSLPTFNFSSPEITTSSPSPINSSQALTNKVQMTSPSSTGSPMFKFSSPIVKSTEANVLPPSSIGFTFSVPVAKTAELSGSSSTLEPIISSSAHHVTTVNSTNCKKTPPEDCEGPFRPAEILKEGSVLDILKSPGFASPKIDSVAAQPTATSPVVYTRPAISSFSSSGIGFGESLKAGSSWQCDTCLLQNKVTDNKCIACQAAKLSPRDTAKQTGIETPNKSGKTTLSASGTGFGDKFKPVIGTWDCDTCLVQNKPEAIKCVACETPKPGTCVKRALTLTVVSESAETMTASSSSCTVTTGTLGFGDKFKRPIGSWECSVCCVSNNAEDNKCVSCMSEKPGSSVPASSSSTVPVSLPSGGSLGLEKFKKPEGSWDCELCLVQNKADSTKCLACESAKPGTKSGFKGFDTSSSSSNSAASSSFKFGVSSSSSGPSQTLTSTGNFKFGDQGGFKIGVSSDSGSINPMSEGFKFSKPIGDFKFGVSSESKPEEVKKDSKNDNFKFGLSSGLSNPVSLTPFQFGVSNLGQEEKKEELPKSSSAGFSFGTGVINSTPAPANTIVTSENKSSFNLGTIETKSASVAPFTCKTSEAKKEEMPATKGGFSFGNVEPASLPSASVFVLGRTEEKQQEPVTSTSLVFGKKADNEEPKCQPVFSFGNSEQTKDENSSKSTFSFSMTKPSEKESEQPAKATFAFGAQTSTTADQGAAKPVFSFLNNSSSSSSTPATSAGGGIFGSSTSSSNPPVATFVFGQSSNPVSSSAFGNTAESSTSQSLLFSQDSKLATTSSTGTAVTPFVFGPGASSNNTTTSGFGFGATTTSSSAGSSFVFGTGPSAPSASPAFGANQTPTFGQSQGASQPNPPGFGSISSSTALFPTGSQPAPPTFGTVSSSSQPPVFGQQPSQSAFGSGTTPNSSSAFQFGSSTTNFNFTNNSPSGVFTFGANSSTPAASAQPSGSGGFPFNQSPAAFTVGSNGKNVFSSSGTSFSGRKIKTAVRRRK

[5] = molecular target: Importin beta (endogenous) (human (HeLa)) (UniProt Q14974); settings: silver stain, MS; biotin-11-CTP incorporated; pull-down: 0.1% Triton X-100, 600 mM NaCl, 5 mM MgCl2, 1 mM DTT, 4 C, 1 h; protein in an extract; label: biotin; letters put together from the description
[6] = molecular target: Ubc9 (endogenous) (human (HeLa)) (UniProt P63279); settings: silver stain, MS; biotin-11-CTP incorporated; pull-down: 0.1% Triton X-100, 600 mM NaCl, 5 mM MgCl2, 1 mM DTT, 4 C, 1 h; protein in an extract; label: biotin; letters put together from the description
[7] = molecular target: T3, Nup62 (endogenous) (human (HeLa)) (UniProt P37198); settings: 600 mM NaCl; biotin-11-CTP incorporated; pull-down: 0.1% Triton X-100, 600 mM NaCl, 5 mM MgCl2, 1 mM DTT, 4 C, 1 h; protein in an extract; label: biotin; letters put together from the description
T3 sequence (looked up, limits assumed): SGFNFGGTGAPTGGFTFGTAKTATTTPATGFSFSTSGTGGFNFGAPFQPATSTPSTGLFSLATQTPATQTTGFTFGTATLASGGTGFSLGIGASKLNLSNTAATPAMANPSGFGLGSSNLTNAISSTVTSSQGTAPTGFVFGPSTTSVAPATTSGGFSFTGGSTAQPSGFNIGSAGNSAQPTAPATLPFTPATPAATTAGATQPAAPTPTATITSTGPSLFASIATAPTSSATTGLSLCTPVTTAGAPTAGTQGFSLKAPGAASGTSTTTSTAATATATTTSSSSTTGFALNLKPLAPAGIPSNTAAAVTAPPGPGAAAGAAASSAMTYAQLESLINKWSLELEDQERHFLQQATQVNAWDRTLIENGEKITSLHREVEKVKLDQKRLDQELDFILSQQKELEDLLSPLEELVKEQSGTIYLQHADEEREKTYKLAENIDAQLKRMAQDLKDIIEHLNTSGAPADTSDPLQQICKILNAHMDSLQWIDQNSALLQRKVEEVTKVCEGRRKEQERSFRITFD

Row | Sequence | binding result [1] | binding result [2] | binding result [3] | binding result [4] | binding result [5] | binding result [6] | binding result [7]
1 | GGACCAUGGCACUGUGGAUGCGACUCCUACCCCUACUGGCACUGCUAGCCCUAUGGGGACCUGACCCAGCCGCAGC [7A-Ins biotinylated RNA (76 nt)] | no binding | no binding | no binding |  |  |  | 
2 | GGACCAUGGCCCUGUGGAUGCGCCUCCUGCCCCUGCUGGCGCUGCUGGCCCUCUGGGGACCUGACCCAGCCGCAGC [Ins biotinylated RNA (76 nt)] | binds | binds | binds | no binding | binds | binds | no binding
